# According to PubChem BioAssay AID1487 (National Center for Advancing Translational Sciences (NCATS), 2009):
# Values joined by “and” are separate entries in the source; they are usually repeats but may differ in a detail not shown here. Equal entries are not always repeated. The list shows a part of the results. The main result of the screen is listed elsewhere. These columns were measured beside it and carry no call. Compounds called inactive in the main read-out are mostly missing here. Potencies come from curve fits of mixed quality, noted in brackets.
# Assay: qHTS Assay for Modulators of Lamin A Splicing
# Conditions: HeLa LMNA splicing GFP/RFP minigene ratio, 48 h
# Procedure, shortened: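 S3 HeLa cells stably expressing lamin A-EGFP splicing minigene plus DsRed2, 600 cells/well, 48 h compound exposure at 37C. Laser-scanning cytometry; analysed as GFP (500-530 nm)/RFP (575-640 nm) total intensity ratio; 0.5% DMSO vehicle.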
# [1] = measured here: RFP viability control channel
# [2] = measured here: GFP splicing reporter channel
smiles,measurement,setting,value
Cc1ccc(NC(=O)Cc2ccccc2Cl)cc1S(=O)(=O)N(C)C,AC50,[1],"35.5 µM [rising, single point]"
CCOC(=O)c1c(NC(=O)c2ccn(CC)n2)sc2c1CCCC2,AC50,[2],"35.5 µM [rising, single point]"
same,AC50,[1],"31.6 µM [rising, single point]"
CCN1C(=O)c2ccccc2Sc2ccc(NC(=O)c3cccc(C)c3)cc21,AC50,[1],"31.6 µM [rising, partial curve, poor fit]"
Cc1ccc(OCc2nnc(SCC(=O)c3ccccc3)n2Cc2ccco2)cc1,AC50,[2],"11.2 µM [rising, single point]"
CC(C)NC[C@H](O)COc1ccc(CC(N)=O)cc1,AC50,[2],"2 nM [falling, full curve] and 0.891 nM [falling, full curve, poor fit] and 178 nM [falling, full curve]"
same,AC50,[1],"0.00158 µM [falling, full curve, poor fit]"
O=C(N/N=C/c1ccc(O)c2ncccc12)c1cccc(Br)c1,AC50,[1],"12.6 µM [falling, single point]"
O=C(CCNC(=O)c1ccccc1Cl)Nc1nc(-c2ccc(F)cc2)cs1,AC50,[1],"17.8 µM [rising, single point]"
Cc1ccc2c(CSc3nc4nc(C)cc(C)n4n3)cc(=O)oc2c1,AC50,[2],"12.6 µM [rising, partial curve, poor fit]"
same,AC50,[1],"20 µM [rising, single point]"
Fc1ccccc1NC(=S)N1CCN(c2ccccn2)CC1,AC50,[1],"35.5 µM [rising, single point]"
COc1ccccc1-c1ccc2ncnc(NCc3cnc(C)cn3)c2c1,AC50,[2],"14.1 µM [falling, single point]"
same,AC50,[1],"12.6 µM [falling, single point]"
COC(=O)c1sc(NC(=S)NC(=O)c2ccc(F)cc2)nc1C,AC50,[2],"0.112 µM [rising, full curve]"
same,AC50,[1],"0.316 µM [rising, full curve]"
O=c1cc2nc(-c3ccccc3)nc(SCCOc3ccc(Cl)cc3)n2[nH]1,AC50,[2],"0.178 µM [falling, full curve, poor fit]"
same,AC50,[1],"0.224 µM [falling, full curve, poor fit]"
CC(C)Oc1ccccc1C1CC(=O)Nc2cc3c(cc21)OCO3 (stereo not drawn),AC50,[2],"3.98 µM [rising, full curve]"
same,AC50,[1],"3.98 µM [rising, full curve]"
Cn1ccnc1C1CCCCN1C(=O)c1cc(COc2ccc(F)cc2Cl)on1 (stereo not drawn),AC50,[2],"0.0631 µM [falling, full curve, poor fit]"
same,AC50,[1],"0.0447 µM [falling, full curve, poor fit]"
c1cnc2c(c1)ccc1cccnc12,AC50,[2],"14.1 µM [rising, single point] and 794 nM [rising, full curve] and 20 µM [falling, partial curve]"
same,AC50,[1],"12.6 µM [rising, partial curve] and 11.2 µM [rising, partial curve] and 5.01 nM [falling, full curve, poor fit]"
CCc1ccccc1NC(=O)Nc1cc(C(=O)NCc2ccccc2OC)ccc1N1CCCC1,AC50,[2],"35.5 µM [falling, single point]"
CCCc1n(CC(O)COCC2CC=CCC2)c2ccccc2[n+]1C (stereo not drawn),AC50,[1],"8.91 µM [falling, single point]"
Cc1nn(-c2ccc(Cl)cc2Cl)c(C)c1C(=O)O,AC50,[1],"4.47 µM [rising, full curve]"
Cc1cc(NC(=O)CSc2nc3ccccc3c(=O)n2Cc2ccccc2)no1,AC50,[1],"2.51 µM [rising, partial curve, poor fit]"
COc1ccccc1N=Nc1nc(-c2ccccc2)c(-c2ccccc2)[nH]1,AC50,[2],"35.5 µM [rising, single point]"
same,AC50,[1],"35.5 µM [rising, single point]"
CCOc1ccc(C2=Nn3c(nnc3-c3ccccc3OC)SC2)cc1,AC50,[2],"0.0501 µM [falling, full curve]"
same,AC50,[1],"0.0562 µM [falling, full curve]"
Cc1ccccc1Nc1c(-c2ccncc2)nc2ccc(Br)cn12,AC50,[1],"14.1 µM [rising, single point]"
COC(=O)N1C2CC(=O)O[C@@H]3c4cc5c(cc4[C@]1(C)[C@@]3(Br)c1ccccc12)OCO5,AC50,[1],"2 µM [rising, partial curve]"
CCc1nnc(NC(=O)CSc2nc3c([nH]c4ccccc43)c(=O)n2-c2ccc(F)cc2)s1,AC50,[1],"35.5 µM [falling, single point]"
CCOC(=O)c1cc(-c2ccc(N3CCOCC3)cc2)nn1-c1ccccc1,AC50,[1],"22.4 µM [rising, single point]"
CCOc1ccc(OCCSc2nc3ccccc3[nH]2)cc1,AC50,[2],"2.51 µM [falling, partial curve, poor fit]"
same,AC50,[1],"11.2 µM [rising, partial curve]"
COc1ccc(C(=O)NCc2nnc(SCC(=O)c3ccccc3)n2C)cc1,AC50,[2],"0.1 µM [falling, full curve, poor fit]"
same,AC50,[1],"0.355 µM [falling, full curve, poor fit]"
Cc1cccn2c(=O)cc(COc3ccc(NC(=O)C(C)C)cc3)nc12,AC50,[2],"0.562 µM [rising, full curve, poor fit]"
Cc1cc(C)nc(/N=C2\NC(=O)CC(C(=O)O)N2c2ccc(Cl)cc2Cl)n1 (stereo not drawn),AC50,[2],"0.794 µM [rising, full curve, poor fit]"
Cc1ccc(C(=O)Nc2cccc([N+](=O)[O-])c2)cc1S(=O)(=O)Nc1ccc(NC(=O)c2ccccc2)cc1,AC50,[2],"15.8 µM [rising, single point]"
same,AC50,[1],"10 µM [rising, single point]"
Cc1ccccc1NC(=O)CSc1nc2ccc(NC(=O)CCc3ccccc3)cc2s1,AC50,[1],"20 µM [falling, partial curve, poor fit]"
Nc1cc(-c2cccc([N+](=O)[O-])c2)[nH]n1,AC50,[1],"2.24 µM [rising, partial curve]"
N#CCCn1c(=O)c(-c2ccc(Cl)cc2)nc2cnc(Nc3ccccc3)nc21,AC50,[2],"12.6 µM [falling, single point]"
same,AC50,[1],"10 µM [falling, partial curve]"
Cc1c(C)n(CC(O)CN2CCCCCC2)c2ccccc12 (stereo not drawn),AC50,[1],"5.62 µM [rising, single point]"
CCn1nnc(NC(=O)COc2ccc(C3CCCCC3)cc2)n1,AC50,[1],"31.6 µM [rising, single point]"
CN1CCc2cccc3c2[C@H]1Cc1ccc(O)c(O)c1-3,AC50,[2],"25.1 µM [falling, partial curve] and 35.5 µM [falling, single point]"
same,AC50,[1],"28.2 µM [falling, partial curve] and 35.5 µM [falling, single point]"
CCCNC(=O)Cn1nc(-c2ccc(C)c(C)c2)c2cnc3ccc(OC)cc3c21,AC50,[2],"25.1 µM [falling, partial curve, poor fit]"
COc1ccc(CNC(=O)COC(=O)c2c(-c3c(F)cccc3Cl)noc2C)cc1OC,AC50,[2],"35.5 µM [rising, single point]"
same,AC50,[1],"22.4 µM [rising, single point]"
O=S(=O)(NCCOc1ccc(F)cc1)c1ccc2c(c1)OCCO2,AC50,[2],"35.5 µM [rising, single point]"
CCOC(=O)c1ccc(OC(=O)c2cn(-c3ccc(C)cc3)c(=O)c3ccccc23)cc1,AC50,[2],"14.1 µM [falling, partial curve]"
same,AC50,[1],"3.16 µM [falling, partial curve]"
COc1cccc(-c2nccc(NCc3ccc(OC)cc3OC)n2)c1,AC50,[2],"12.6 µM [falling, partial curve]"
same,AC50,[1],"15.8 µM [falling, partial curve, poor fit]"
O=C(c1c(F)cccc1F)N1CCCC1,AC50,[1],"20 µM [rising, single point]"
CCn1nc(C(=O)OCC(=O)c2cc(C)n(Cc3cccs3)c2C)c2ccccc2c1=O,AC50,[2],"22.4 µM [rising, single point]"
same,AC50,[1],"22.4 µM [rising, single point]"
O=C(Nc1ccccc1-c1nnn(CC(=O)N2CCCc3ccccc32)n1)c1ccco1,AC50,[2],"6.31 µM [rising, partial curve, poor fit]"
CCCCCOC(=O)Nc1nc(=O)n(C2O[C@H](C)[C@@H](O)[C@@H]2O)cc1F (stereo partly drawn),AC50,[2],"35.5 µM [falling, single point]"
same,AC50,[1],"0.708 µM [rising, full curve, poor fit]"
COc1ccc(-n2nc(C(=O)NCC(=O)N3CCN(c4ccccn4)CC3)c3ccccc3c2=O)cc1OC,AC50,[1],"31.6 µM [rising, single point]"
CCCn1c(SCCN2C(=O)c3ccccc3C2=O)n[nH]c1=O,AC50,[1],"0.0126 µM [falling, full curve, poor fit]"
CSc1nc(N)nc(SCC(=O)C23CC4CC(CC(C4)C2)C3)c1C#N,AC50,[2],"11.2 µM [rising, partial curve, poor fit]"
same,AC50,[1],"8.91 µM [rising, partial curve]"
CCC(NC(C)C)C(O)c1ccc(O)c(O)c1 (stereo not drawn),AC50,[2],"11.2 µM [falling, partial curve] and 14.1 µM [rising, single point]"
same,AC50,[1],"22.4 µM [falling, single point]"
Cn1cc(S(=O)(=O)N2CCCCCC2)cc1C(=O)N1CCN(c2ccccc2F)CC1,AC50,[1],"0.0501 µM [rising, full curve, poor fit]"

# 13 consecutive records from above, for reference:
smiles,measurement,setting,value
CCN1C(=O)c2ccccc2Sc2ccc(NC(=O)c3cccc(C)c3)cc21,AC50,[1],"31.6 µM [rising, partial curve, poor fit]"
Cc1ccc(OCc2nnc(SCC(=O)c3ccccc3)n2Cc2ccco2)cc1,AC50,[2],"11.2 µM [rising, single point]"
CC(C)NC[C@H](O)COc1ccc(CC(N)=O)cc1,AC50,[2],"2 nM [falling, full curve] and 0.891 nM [falling, full curve, poor fit] and 178 nM [falling, full curve]"
same,AC50,[1],"0.00158 µM [falling, full curve, poor fit]"
O=C(N/N=C/c1ccc(O)c2ncccc12)c1cccc(Br)c1,AC50,[1],"12.6 µM [falling, single point]"
O=C(CCNC(=O)c1ccccc1Cl)Nc1nc(-c2ccc(F)cc2)cs1,AC50,[1],"17.8 µM [rising, single point]"
Cc1ccc2c(CSc3nc4nc(C)cc(C)n4n3)cc(=O)oc2c1,AC50,[2],"12.6 µM [rising, partial curve, poor fit]"
same,AC50,[1],"20 µM [rising, single point]"
Fc1ccccc1NC(=S)N1CCN(c2ccccn2)CC1,AC50,[1],"35.5 µM [rising, single point]"
COc1ccccc1-c1ccc2ncnc(NCc3cnc(C)cn3)c2c1,AC50,[2],"14.1 µM [falling, single point]"
same,AC50,[1],"12.6 µM [falling, single point]"
COC(=O)c1sc(NC(=S)NC(=O)c2ccc(F)cc2)nc1C,AC50,[2],"0.112 µM [rising, full curve]"
same,AC50,[1],"0.316 µM [rising, full curve]"
